Reference: the supplement of paper PMC8426693
This is one part of the list.

These compounds were tested on SARS-CoV-2 3_SL1+2 RNA (assay: NMR binding call after quantification (hit when 2 of 3 NMR criteria are met) (binary (1 = binding, 0 = not binding)); higher = binding). Details: RNA concentration 10 µM; fragment concentration 200 µM; 293 K.

Compound | NMR binding call
O=C(Cc1ccc(F)cc1)NC1CCCCC1 | 0
CC1CCNC(C(N)=O)C1 (stereo not given) | 0
Cc1nc(CC(=O)N2CCOCC2)cs1 | 0
CC(=O)Nc1cccc2nonc12 | 0
Cc1[nH]cnc1CN1CCc2ccccc2C1 | 0
NC(=O)c1ccc(NC(=O)c2ccccc2)cc1 | 0
Cc1cccc(NC(=O)C2CCCN2)n1 (stereo not given) | 0
CC(=O)NCCN1CCCCCC1 | 0
Cn1cc(Oc2ncncc2Cl)cn1 | 0
COc1ccc(Cl)cc1C(=O)NCC(C)C | 0
OCc1ccc(-n2cnc3ccccc32)cc1 | 0
Clc1cccc(CN2CCOCC2)c1 | 0
CC(C(N)=O)N1CCN(S(C)(=O)=O)CC1 (stereo not given) | 0
NC(=S)Nc1ccccc1OC(F)(F)F | 0
CCOC(=O)c1sc(N(C)C(C)=O)nc1C | 0
CC(C)(O)CN1CCC(N)C1 (stereo not given) | 0
c1cc(NCC2CCCO2)ccn1 (stereo not given) | 0
Cc1cc(C(=O)NCC2CCCO2)ns1 (stereo not given) | 0
CC(Oc1ccc(C#N)cc1)C(N)=O (stereo not given) | 0
Cc1cnc(NC(=O)CCC2CCCC2)s1 | 0

Compound | NMR binding call
CN1CCC(Oc2cccc(F)c2)C1=O (stereo not given) | 0
Cc1cccc(C(=O)N(C)C)c1C | 0
CNC1(C(N)=O)CCCC1 | 0
Cc1ccc(CNC(=O)Cc2cccs2)cc1 | 0
CN1CCN(C(=O)C2CCCO2)CC1 (stereo not given) | 0
Cc1nc(C(=O)N2CCCC2)c(C)s1 | 0
CC(C)N(C)S(=O)(=O)N1CCNC(=O)C1 | 0
CS(=O)(=O)NC1CCNCC1 | 0
O=C(Nc1nccs1)C1CC1c1ccccc1 (stereo not given) | 0
Nc1ccccc1OCc1ccccc1 | 0
CC(=O)c1ccc(OCC(=O)O)cc1 | 0
O=C(Nc1nncs1)c1ccccc1F | 0
CCc1nnc(NC(=O)CN(C)C)s1 | 0
O=C(NCCC1=CCCCC1)c1cnccn1 | 0
CNC(=O)NCc1c(F)cccc1Cl | 0
CC(N)C(=O)N1CCCCC1C (stereo not given) | 0
CC(C)NC(=O)N(C)C1CCS(=O)(=O)C1 (stereo not given) | 0
CC(O)CCn1cccn1 (stereo not given) | 0
N#Cc1ccc(CNCc2ccc(F)cc2)cc1 | 0
CC(O)COc1cccc(F)c1 (stereo not given) | 0

These compounds were tested on SARS-CoV-2 3_SL2 RNA in the same assay as above. Details: RNA concentration 10 µM; fragment concentration 200 µM; 293 K.

Compound | NMR binding call
O=C(Cc1ccc(F)cc1)NC1CCCCC1 | 0
CC1CCNC(C(N)=O)C1 (stereo not given) | 0
Cc1nc(CC(=O)N2CCOCC2)cs1 | 0
CC(=O)Nc1cccc2nonc12 | 0
Cc1[nH]cnc1CN1CCc2ccccc2C1 | 0
NC(=O)c1ccc(NC(=O)c2ccccc2)cc1 | 0
Cc1cccc(NC(=O)C2CCCN2)n1 (stereo not given) | 0
CC(=O)NCCN1CCCCCC1 | 0
Cn1cc(Oc2ncncc2Cl)cn1 | 0
COc1ccc(Cl)cc1C(=O)NCC(C)C | 0
OCc1ccc(-n2cnc3ccccc32)cc1 | 0
Clc1cccc(CN2CCOCC2)c1 | 0
CC(C(N)=O)N1CCN(S(C)(=O)=O)CC1 (stereo not given) | 0
NC(=S)Nc1ccccc1OC(F)(F)F | 0
CCOC(=O)c1sc(N(C)C(C)=O)nc1C | 0
CC(C)(O)CN1CCC(N)C1 (stereo not given) | 0
c1cc(NCC2CCCO2)ccn1 (stereo not given) | 0
Cc1cc(C(=O)NCC2CCCO2)ns1 (stereo not given) | 0
CC(Oc1ccc(C#N)cc1)C(N)=O (stereo not given) | 0
Cc1cnc(NC(=O)CCC2CCCC2)s1 | 0

Compound | NMR binding call
CN1CCC(Oc2cccc(F)c2)C1=O (stereo not given) | 0
Cc1cccc(C(=O)N(C)C)c1C | 0
CNC1(C(N)=O)CCCC1 | 0
Cc1ccc(CNC(=O)Cc2cccs2)cc1 | 0
CN1CCN(C(=O)C2CCCO2)CC1 (stereo not given) | 0
Cc1nc(C(=O)N2CCCC2)c(C)s1 | 0
CC(C)N(C)S(=O)(=O)N1CCNC(=O)C1 | 0
CS(=O)(=O)NC1CCNCC1 | 0
O=C(Nc1nccs1)C1CC1c1ccccc1 (stereo not given) | 0
Nc1ccccc1OCc1ccccc1 | 0
CC(=O)c1ccc(OCC(=O)O)cc1 | 0
O=C(Nc1nncs1)c1ccccc1F | 0
CCc1nnc(NC(=O)CN(C)C)s1 | 0
O=C(NCCC1=CCCCC1)c1cnccn1 | 0
CNC(=O)NCc1c(F)cccc1Cl | 0
CC(N)C(=O)N1CCCCC1C (stereo not given) | 0
CC(C)NC(=O)N(C)C1CCS(=O)(=O)C1 (stereo not given) | 0
CC(O)CCn1cccn1 (stereo not given) | 0
N#Cc1ccc(CNCc2ccc(F)cc2)cc1 | 0
CC(O)COc1cccc(F)c1 (stereo not given) | 0

These compounds were tested on SARS-CoV-2 3_SL3base RNA in the same assay as above. Details: RNA concentration 10 µM; fragment concentration 200 µM; 293 K.

Compound | NMR binding call
O=C(Cc1ccc(F)cc1)NC1CCCCC1 | 0
CC1CCNC(C(N)=O)C1 (stereo not given) | 0
Cc1nc(CC(=O)N2CCOCC2)cs1 | 0
CC(=O)Nc1cccc2nonc12 | 0
Cc1[nH]cnc1CN1CCc2ccccc2C1 | 0
NC(=O)c1ccc(NC(=O)c2ccccc2)cc1 | 0
Cc1cccc(NC(=O)C2CCCN2)n1 (stereo not given) | 0
CC(=O)NCCN1CCCCCC1 | 0
Cn1cc(Oc2ncncc2Cl)cn1 | 0
COc1ccc(Cl)cc1C(=O)NCC(C)C | 0
OCc1ccc(-n2cnc3ccccc32)cc1 | 0
Clc1cccc(CN2CCOCC2)c1 | 0
CC(C(N)=O)N1CCN(S(C)(=O)=O)CC1 (stereo not given) | 0
NC(=S)Nc1ccccc1OC(F)(F)F | 0
CCOC(=O)c1sc(N(C)C(C)=O)nc1C | 0
CC(C)(O)CN1CCC(N)C1 (stereo not given) | 0
c1cc(NCC2CCCO2)ccn1 (stereo not given) | 0
Cc1cc(C(=O)NCC2CCCO2)ns1 (stereo not given) | 0
CC(Oc1ccc(C#N)cc1)C(N)=O (stereo not given) | 0
Cc1cnc(NC(=O)CCC2CCCC2)s1 | 0

Compound | NMR binding call
CN1CCC(Oc2cccc(F)c2)C1=O (stereo not given) | 0
Cc1cccc(C(=O)N(C)C)c1C | 0
CNC1(C(N)=O)CCCC1 | 0
Cc1ccc(CNC(=O)Cc2cccs2)cc1 | 0
CN1CCN(C(=O)C2CCCO2)CC1 (stereo not given) | 0
Cc1nc(C(=O)N2CCCC2)c(C)s1 | 0
CC(C)N(C)S(=O)(=O)N1CCNC(=O)C1 | 0
CS(=O)(=O)NC1CCNCC1 | 0
O=C(Nc1nccs1)C1CC1c1ccccc1 (stereo not given) | 0
Nc1ccccc1OCc1ccccc1 | 0
CC(=O)c1ccc(OCC(=O)O)cc1 | 0
O=C(Nc1nncs1)c1ccccc1F | 0
CCc1nnc(NC(=O)CN(C)C)s1 | 0
O=C(NCCC1=CCCCC1)c1cnccn1 | 0
CNC(=O)NCc1c(F)cccc1Cl | 0
CC(N)C(=O)N1CCCCC1C (stereo not given) | 0
CC(C)NC(=O)N(C)C1CCS(=O)(=O)C1 (stereo not given) | 0
CC(O)CCn1cccn1 (stereo not given) | 0
N#Cc1ccc(CNCc2ccc(F)cc2)cc1 | 0
CC(O)COc1cccc(F)c1 (stereo not given) | 0
